Assay results as given in the supplement of paper PMC10849652.
The list shows a part of the results.

By UniProt entry, the sequences of proteins in these tests, tags left out. Where a name states a change or a piece, a line headed by the entry shows the natural chain unless it says otherwise.
UniProt Q659A1: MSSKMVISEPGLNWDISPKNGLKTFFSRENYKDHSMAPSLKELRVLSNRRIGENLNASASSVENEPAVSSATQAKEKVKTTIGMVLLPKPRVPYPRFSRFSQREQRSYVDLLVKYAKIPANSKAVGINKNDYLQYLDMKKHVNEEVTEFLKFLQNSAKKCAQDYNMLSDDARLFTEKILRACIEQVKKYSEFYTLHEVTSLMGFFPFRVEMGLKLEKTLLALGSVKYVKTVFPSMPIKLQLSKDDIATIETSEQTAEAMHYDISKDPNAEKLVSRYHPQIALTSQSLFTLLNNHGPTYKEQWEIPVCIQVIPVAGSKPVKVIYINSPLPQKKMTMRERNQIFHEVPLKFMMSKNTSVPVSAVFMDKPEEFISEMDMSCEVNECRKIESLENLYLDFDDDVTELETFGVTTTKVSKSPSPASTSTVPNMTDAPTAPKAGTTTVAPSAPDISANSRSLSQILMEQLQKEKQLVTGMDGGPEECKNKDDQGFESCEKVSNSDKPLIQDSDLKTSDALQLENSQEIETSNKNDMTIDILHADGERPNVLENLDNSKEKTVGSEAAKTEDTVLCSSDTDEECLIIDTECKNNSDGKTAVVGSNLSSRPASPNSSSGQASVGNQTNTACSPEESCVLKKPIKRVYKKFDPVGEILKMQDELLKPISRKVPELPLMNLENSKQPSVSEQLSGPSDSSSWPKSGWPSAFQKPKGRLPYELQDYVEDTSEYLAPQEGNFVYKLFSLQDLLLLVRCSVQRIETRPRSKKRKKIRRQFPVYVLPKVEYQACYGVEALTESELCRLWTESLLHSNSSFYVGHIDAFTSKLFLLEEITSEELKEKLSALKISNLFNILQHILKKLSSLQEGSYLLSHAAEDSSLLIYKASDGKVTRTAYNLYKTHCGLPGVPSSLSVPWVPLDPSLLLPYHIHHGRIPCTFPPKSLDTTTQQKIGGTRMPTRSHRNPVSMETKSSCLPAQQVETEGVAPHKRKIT
UniProt O60725, whole entry, looked up: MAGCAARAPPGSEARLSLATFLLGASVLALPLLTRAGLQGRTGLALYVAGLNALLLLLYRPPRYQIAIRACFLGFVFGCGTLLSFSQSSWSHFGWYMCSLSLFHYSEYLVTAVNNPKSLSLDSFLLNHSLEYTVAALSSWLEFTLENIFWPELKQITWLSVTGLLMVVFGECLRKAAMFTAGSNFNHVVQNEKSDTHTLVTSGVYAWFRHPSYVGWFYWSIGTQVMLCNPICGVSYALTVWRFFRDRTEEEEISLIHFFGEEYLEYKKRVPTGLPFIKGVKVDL
UniProt P22692: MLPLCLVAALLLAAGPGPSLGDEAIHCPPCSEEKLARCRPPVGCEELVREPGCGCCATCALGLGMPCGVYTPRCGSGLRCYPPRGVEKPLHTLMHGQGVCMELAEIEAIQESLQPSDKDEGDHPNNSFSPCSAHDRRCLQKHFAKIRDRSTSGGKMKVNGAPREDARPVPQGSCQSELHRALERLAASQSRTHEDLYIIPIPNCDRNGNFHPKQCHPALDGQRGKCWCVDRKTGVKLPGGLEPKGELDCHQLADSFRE
UniProt P05362: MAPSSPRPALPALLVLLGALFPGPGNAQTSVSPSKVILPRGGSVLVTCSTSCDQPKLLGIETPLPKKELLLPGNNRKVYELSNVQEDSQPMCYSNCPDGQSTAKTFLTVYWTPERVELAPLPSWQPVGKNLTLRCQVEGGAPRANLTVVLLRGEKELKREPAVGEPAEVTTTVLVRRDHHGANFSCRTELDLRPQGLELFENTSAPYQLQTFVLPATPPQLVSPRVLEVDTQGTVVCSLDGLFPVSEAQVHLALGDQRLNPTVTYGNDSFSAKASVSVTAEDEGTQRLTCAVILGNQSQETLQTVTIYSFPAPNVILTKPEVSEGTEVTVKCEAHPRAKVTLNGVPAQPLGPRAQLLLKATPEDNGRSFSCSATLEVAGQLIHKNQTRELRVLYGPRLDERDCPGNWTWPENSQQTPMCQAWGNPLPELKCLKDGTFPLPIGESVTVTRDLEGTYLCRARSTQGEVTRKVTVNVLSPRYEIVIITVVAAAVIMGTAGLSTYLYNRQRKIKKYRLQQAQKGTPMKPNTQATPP
UniProt O15357: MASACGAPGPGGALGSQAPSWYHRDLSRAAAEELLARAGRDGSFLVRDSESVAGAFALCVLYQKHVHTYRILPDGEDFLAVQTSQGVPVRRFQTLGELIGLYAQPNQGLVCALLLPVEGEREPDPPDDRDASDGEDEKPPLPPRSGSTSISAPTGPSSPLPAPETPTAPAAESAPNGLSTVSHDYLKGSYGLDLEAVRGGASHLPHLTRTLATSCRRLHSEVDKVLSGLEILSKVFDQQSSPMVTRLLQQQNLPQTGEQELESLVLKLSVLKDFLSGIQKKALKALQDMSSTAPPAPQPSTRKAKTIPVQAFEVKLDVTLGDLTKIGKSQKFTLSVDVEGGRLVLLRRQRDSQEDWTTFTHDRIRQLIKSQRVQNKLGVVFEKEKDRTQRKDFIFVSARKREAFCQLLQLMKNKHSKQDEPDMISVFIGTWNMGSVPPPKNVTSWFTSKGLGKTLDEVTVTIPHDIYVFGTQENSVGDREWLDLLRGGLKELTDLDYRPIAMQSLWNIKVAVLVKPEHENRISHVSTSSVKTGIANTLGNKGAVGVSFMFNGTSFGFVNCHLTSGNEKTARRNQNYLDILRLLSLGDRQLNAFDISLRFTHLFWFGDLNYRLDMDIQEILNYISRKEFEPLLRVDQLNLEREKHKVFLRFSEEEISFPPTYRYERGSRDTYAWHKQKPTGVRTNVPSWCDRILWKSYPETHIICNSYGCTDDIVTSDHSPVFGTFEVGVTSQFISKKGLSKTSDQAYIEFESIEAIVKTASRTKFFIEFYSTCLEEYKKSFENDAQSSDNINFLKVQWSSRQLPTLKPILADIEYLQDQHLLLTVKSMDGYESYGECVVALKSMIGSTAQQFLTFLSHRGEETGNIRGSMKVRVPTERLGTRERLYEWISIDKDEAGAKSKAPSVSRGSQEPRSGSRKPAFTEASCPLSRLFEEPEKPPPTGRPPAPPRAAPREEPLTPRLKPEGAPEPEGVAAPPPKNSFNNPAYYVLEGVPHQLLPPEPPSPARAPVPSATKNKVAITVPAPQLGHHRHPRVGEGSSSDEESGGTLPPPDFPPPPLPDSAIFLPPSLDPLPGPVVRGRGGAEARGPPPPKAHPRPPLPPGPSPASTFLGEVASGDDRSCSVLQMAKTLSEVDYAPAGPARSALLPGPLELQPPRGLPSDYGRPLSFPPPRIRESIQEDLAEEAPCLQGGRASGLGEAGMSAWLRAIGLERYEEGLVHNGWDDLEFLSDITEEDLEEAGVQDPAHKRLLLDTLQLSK
UniProt Q5T440: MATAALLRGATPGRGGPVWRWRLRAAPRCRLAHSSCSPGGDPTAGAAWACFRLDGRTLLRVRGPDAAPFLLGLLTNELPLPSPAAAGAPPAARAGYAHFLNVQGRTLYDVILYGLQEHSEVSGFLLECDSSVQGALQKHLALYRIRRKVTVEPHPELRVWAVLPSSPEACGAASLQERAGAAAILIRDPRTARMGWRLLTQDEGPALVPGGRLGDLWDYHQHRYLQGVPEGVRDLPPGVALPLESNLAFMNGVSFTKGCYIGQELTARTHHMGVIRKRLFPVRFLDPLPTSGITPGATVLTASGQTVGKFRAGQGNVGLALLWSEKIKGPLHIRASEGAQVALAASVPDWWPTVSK
UniProt Q9NXR8, whole entry, looked up: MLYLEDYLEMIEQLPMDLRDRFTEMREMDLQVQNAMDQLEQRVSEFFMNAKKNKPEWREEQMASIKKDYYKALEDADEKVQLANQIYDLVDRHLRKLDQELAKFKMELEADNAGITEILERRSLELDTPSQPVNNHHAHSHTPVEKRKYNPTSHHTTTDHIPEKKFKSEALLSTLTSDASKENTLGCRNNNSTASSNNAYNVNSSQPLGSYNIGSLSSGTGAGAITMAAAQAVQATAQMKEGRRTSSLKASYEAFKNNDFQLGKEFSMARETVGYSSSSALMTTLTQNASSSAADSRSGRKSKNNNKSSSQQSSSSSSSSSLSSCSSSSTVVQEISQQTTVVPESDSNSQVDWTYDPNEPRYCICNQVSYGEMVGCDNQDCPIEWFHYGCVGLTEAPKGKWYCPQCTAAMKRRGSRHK
UniProt P78318: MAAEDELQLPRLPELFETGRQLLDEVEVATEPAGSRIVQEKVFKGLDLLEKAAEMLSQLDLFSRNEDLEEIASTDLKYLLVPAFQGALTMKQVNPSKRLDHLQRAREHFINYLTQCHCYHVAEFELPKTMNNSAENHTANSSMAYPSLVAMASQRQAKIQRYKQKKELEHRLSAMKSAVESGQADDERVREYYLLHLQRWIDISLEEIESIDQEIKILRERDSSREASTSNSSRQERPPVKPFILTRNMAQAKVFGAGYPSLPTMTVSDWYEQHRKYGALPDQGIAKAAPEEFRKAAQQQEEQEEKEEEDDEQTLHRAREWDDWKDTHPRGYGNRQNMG
UniProt Q9P2H3, whole entry, looked up: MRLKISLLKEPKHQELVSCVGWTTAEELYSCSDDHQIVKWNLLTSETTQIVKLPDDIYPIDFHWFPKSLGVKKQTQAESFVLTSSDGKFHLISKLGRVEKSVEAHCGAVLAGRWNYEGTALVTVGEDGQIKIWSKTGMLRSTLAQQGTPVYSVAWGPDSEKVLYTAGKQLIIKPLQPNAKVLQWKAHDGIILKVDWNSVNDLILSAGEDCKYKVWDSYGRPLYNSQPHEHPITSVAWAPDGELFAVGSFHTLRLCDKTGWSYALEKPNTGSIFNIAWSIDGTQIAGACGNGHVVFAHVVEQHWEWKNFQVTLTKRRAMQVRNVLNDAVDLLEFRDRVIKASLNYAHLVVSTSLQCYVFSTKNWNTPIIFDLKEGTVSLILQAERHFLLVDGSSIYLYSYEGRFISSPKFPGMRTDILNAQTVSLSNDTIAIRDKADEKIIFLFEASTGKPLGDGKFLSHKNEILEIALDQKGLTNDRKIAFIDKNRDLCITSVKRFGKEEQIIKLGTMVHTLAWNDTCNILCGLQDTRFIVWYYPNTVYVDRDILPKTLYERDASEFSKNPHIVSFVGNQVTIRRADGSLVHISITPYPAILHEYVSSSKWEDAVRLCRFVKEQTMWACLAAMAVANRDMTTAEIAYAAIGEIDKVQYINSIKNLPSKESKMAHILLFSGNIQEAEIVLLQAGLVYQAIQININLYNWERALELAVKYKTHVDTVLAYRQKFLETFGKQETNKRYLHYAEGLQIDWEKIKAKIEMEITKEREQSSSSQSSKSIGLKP
UniProt P61604, whole entry, looked up: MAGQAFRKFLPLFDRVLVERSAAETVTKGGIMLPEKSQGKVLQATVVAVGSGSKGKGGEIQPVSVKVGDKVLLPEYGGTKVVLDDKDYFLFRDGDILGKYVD
UniProt Q12906, whole entry, looked up: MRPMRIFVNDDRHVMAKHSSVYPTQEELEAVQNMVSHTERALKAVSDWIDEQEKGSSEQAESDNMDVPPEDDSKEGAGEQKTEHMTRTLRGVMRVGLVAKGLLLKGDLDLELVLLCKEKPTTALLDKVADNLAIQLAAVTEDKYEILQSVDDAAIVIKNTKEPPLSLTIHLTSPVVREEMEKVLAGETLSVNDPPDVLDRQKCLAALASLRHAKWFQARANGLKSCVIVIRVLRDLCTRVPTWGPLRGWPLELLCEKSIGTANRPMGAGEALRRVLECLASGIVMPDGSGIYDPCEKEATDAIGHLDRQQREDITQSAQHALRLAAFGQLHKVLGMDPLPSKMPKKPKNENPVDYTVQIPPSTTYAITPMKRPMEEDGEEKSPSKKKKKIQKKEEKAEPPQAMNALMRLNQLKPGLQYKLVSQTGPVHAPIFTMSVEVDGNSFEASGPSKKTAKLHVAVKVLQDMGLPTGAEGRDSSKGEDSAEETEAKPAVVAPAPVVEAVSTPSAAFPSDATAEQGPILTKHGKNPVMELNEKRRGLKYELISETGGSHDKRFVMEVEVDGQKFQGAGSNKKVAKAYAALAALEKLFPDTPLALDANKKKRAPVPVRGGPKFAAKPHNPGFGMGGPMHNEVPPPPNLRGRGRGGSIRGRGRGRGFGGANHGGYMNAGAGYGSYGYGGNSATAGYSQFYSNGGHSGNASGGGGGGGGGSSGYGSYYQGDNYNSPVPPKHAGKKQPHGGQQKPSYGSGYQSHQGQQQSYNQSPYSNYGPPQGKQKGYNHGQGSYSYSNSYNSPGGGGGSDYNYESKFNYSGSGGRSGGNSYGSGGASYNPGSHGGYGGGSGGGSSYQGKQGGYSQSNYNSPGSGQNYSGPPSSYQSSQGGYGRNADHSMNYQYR
UniProt Q70UQ0: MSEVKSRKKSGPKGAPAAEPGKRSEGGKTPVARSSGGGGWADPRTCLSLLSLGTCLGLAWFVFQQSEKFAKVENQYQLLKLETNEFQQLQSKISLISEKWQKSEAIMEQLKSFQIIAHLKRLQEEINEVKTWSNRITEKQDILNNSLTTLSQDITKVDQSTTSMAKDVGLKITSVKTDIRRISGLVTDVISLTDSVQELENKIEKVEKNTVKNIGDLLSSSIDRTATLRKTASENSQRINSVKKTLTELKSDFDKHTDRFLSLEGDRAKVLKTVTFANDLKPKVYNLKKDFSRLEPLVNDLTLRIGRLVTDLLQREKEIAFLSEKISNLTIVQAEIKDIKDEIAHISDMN

Compound: Cc1cn(-c2cc(NC(=O)c3ccc(C)c(Nc4nccc(-c5cccnc5)n4)c3)cc(C(F)(F)F)c2)cn1 [nilotinib]
Assay: log2 fold change, soluble protein after heating vs DMSO (PISA); higher = thermal stabilisation; K562 lysate, 10 uM; active = over 0.2 and 3.5 SD of the protein, either way, in both replicates (recomputed)
How it was run: (§1)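 Pellets of K562 cells were dounce-homogenised in PBS pH 7.4 with 1 mM MgCl2, and the crude extract was held at 1 mg/mL protein for a 30 min treatment with 10 μM compound. Aliquots were heated for 3 min over 48°C-58°C and pooled before NP-40 was added to 0.5% at 4°C. The supernatant from 21,000xg for 90 min was quantified by TMTpro 16plex LC-MS/MS with channel sums equalised. Values are reported from duplicates as log-two fold change in thermal stability relative to solvent controls.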

log2 fold change, inactive:
ICE2 (UniProt Q659A1) -0.017
ICMT (UniProt O60725) 0.076
IGFBP4 (UniProt P22692) 0.005
INF2 (UniProt Q27J81) -0.08
IMPDH2 (UniProt H0Y4R1) 0.106
IDH3B (UniProt O43837) 0.007
IGSF3 (UniProt O75054) 0.003
ICAM1 (UniProt P05362) 0.073
INPPL1 (UniProt O15357) -0.007
HSPA8 (UniProt E9PK54) 0.023
HUS1 (UniProt O60921) 0.003
IARS2 (UniProt Q9NSE4) 0.016
IBA57 (UniProt Q5T440) -0.013
ING3 (UniProt Q9NXR8) -0.006
ICE1 (UniProt Q9Y2F5) 0.045
IGBP1 (UniProt P78318) -0.012
IFT80 isoform 3 (UniProt Q9P2H3) 0.072
HSPE1 (UniProt P61604) 0.004
IGF2R (UniProt P11717) 0.013
HTRA2 (UniProt O43464) -0.005
INPP1 (UniProt P49441) 0.013
IKZF1 (UniProt Q13422) -0.193
INO80E (UniProt Q8NBZ0) 0.04
INPP4A (UniProt Q96PE3) 0.012
HYOU1 (UniProt J3QL06) -0.227
IMPACT (UniProt Q9P2X3) 0.087
ILF3 isoform 7 (UniProt Q12906) -0.024
IARS (UniProt P41252) 0.007
HSPA8 (UniProt E9PN89) 0.013
IKBIP (UniProt Q70UQ0) -0.087
IFT122 isoform 5 (UniProt Q9HBG6) -0.001
IFT20 isoform 2 (UniProt Q8IY31) 0.021

Compound: Cc1nc(Nc2n[nH]c3c2CN(C(=O)N[C@H](CN(C)C)c2ccccc2)C3(C)C)c2sccc2n1
Assay: as above
How it was run: as §1

log2 fold change, inactive:
ICE2 (UniProt Q659A1) -0.004
ICMT (UniProt O60725) 0.024
IGFBP4 (UniProt P22692) -0.01
INF2 (UniProt Q27J81) 0.055
IMPDH2 (UniProt H0Y4R1) -0.012
IDH3B (UniProt O43837) -0.017
IGSF3 (UniProt O75054) -0.064
ICAM1 (UniProt P05362) 0.021
INPPL1 (UniProt O15357) -0.001
HSPA8 (UniProt E9PK54) -0.053
HUS1 (UniProt O60921) 0.03
IARS2 (UniProt Q9NSE4) -0.007
IBA57 (UniProt Q5T440) -0.007
ING3 (UniProt Q9NXR8) -0.001
ICE1 (UniProt Q9Y2F5) -0.1
IGBP1 (UniProt P78318) -0.016
IFT80 isoform 3 (UniProt Q9P2H3) 0.034
HSPE1 (UniProt P61604) -0.037
IGF2R (UniProt P11717) -0.003
HTRA2 (UniProt O43464) 0.015
INPP1 (UniProt P49441) -0.043
IKZF1 (UniProt Q13422) -0.058
INO80E (UniProt Q8NBZ0) -0.156
INPP4A (UniProt Q96PE3) -0.021
HYOU1 (UniProt J3QL06) 0.064
IMPACT (UniProt Q9P2X3) -0.066
ILF3 isoform 7 (UniProt Q12906) 0.002
IARS (UniProt P41252) -0.007
HSPA8 (UniProt E9PN89) -0.008
IKBIP (UniProt Q70UQ0) -0.017
IFT122 isoform 5 (UniProt Q9HBG6) 0.194
IFT20 isoform 2 (UniProt Q8IY31) -0.009

Compound: Cc1nc(Nc2ncc(C(=O)Nc3c(C)cccc3Cl)s2)cc(N2CCN(CCO)CC2)n1 [dasatinib]
Assay: as above
How it was run: as §1

log2 fold change, inactive:
ICE2 (UniProt Q659A1) -0.018
ICMT (UniProt O60725) 0.03
IGFBP4 (UniProt P22692) 0.085
INF2 (UniProt Q27J81) 0.032
IMPDH2 (UniProt H0Y4R1) 0.004
IDH3B (UniProt O43837) 0.003
IGSF3 (UniProt O75054) 0.026
ICAM1 (UniProt P05362) -0.002
INPPL1 (UniProt O15357) -0.031
HSPA8 (UniProt E9PK54) -0.024
HUS1 (UniProt O60921) 0.019
IARS2 (UniProt Q9NSE4) -0.021
IBA57 (UniProt Q5T440) 0.003
ING3 (UniProt Q9NXR8) 0.014
ICE1 (UniProt Q9Y2F5) -0.064
IGBP1 (UniProt P78318) 0.035
IFT80 isoform 3 (UniProt Q9P2H3) -0.233
HSPE1 (UniProt P61604) 0.025
IGF2R (UniProt P11717) 0.022
HTRA2 (UniProt O43464) 0.014
INPP1 (UniProt P49441) -0.026
IKZF1 (UniProt Q13422) 0.019
INO80E (UniProt Q8NBZ0) -0.269
INPP4A (UniProt Q96PE3) 0.028
HYOU1 (UniProt J3QL06) -0.232
IMPACT (UniProt Q9P2X3) 0.013
ILF3 isoform 7 (UniProt Q12906) 0
IARS (UniProt P41252) -0.042
HSPA8 (UniProt E9PN89) -0.209
IKBIP (UniProt Q70UQ0) 0.005
IFT122 isoform 5 (UniProt Q9HBG6) -0.226
IFT20 isoform 2 (UniProt Q8IY31) -0.055
